# Measured values as given in the supplement of paper PMC6411743.
# Sequences of proteins named here, by UniProt entry; tags and fusion partners are left off. A change or cut given only in a name is not applied to a line headed by its entry.
# UniProt Q07021: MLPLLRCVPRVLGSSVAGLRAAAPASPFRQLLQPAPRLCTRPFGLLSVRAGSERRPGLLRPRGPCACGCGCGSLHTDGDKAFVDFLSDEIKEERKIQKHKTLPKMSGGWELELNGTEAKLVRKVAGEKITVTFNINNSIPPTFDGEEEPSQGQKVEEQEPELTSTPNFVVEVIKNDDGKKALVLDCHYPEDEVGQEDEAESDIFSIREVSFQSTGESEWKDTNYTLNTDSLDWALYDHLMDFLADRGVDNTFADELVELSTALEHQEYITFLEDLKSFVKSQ
# UniProt Q13595: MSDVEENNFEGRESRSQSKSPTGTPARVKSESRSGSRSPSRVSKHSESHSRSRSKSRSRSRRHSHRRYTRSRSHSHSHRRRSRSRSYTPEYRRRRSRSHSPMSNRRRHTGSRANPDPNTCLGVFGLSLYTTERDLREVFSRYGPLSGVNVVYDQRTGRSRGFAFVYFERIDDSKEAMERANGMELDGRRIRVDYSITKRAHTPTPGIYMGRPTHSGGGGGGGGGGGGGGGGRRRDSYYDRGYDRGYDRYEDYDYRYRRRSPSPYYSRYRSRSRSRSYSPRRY
# UniProt Q04917: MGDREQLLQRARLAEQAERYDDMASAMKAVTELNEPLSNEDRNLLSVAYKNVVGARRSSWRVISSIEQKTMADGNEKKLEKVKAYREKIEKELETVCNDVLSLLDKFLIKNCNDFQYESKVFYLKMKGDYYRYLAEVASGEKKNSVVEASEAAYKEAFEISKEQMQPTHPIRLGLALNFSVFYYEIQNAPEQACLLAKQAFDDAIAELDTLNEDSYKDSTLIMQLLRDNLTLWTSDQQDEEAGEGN
# UniProt Q14156: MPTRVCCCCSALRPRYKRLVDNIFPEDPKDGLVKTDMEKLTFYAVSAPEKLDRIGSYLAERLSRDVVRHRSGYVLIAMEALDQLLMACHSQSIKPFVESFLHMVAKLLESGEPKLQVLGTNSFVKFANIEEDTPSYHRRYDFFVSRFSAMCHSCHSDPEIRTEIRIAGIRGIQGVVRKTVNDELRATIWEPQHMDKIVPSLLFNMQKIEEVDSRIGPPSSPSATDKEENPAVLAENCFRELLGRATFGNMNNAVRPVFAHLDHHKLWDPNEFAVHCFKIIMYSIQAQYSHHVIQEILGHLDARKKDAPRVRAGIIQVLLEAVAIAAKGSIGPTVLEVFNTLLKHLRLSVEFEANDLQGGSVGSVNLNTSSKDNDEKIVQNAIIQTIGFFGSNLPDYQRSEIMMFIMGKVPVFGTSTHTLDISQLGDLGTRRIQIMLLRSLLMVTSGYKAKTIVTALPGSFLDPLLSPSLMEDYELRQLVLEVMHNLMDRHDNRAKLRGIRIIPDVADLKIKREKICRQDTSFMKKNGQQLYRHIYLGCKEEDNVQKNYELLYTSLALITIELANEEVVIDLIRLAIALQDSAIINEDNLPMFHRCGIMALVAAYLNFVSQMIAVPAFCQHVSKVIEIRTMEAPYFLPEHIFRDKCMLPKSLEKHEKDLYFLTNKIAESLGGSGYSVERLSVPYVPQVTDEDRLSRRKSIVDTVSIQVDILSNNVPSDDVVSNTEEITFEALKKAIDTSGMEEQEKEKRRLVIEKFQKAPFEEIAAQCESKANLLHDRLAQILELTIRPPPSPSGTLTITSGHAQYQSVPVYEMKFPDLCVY
# UniProt Q14011: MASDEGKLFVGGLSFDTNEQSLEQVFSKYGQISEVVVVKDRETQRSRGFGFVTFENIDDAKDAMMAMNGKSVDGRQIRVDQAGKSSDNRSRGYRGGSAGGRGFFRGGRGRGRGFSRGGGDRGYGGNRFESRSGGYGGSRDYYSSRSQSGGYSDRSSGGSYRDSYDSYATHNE
# UniProt Q13867: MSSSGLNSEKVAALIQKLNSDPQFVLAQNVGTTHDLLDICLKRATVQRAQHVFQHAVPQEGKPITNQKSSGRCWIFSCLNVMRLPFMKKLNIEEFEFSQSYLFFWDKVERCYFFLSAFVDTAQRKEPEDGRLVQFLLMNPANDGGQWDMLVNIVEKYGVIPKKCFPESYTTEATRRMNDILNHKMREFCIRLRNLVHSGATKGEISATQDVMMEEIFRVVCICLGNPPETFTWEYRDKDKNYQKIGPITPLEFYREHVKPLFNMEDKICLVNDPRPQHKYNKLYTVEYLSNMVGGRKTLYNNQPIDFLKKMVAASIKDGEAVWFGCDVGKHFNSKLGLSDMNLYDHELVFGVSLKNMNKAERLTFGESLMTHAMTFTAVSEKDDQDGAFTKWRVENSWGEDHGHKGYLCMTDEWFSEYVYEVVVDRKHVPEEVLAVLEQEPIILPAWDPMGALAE
# UniProt Q13895: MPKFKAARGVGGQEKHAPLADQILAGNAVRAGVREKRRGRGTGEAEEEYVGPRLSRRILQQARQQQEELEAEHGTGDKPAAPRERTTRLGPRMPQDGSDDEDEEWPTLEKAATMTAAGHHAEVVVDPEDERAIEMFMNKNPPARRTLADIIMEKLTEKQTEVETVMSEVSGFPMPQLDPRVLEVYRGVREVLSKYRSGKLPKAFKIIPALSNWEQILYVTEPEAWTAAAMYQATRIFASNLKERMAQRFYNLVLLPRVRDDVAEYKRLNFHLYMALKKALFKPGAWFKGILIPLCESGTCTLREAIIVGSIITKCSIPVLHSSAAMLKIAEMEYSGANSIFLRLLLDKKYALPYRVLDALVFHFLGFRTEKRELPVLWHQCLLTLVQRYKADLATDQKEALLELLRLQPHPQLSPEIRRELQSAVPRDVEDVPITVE
# UniProt Q04721: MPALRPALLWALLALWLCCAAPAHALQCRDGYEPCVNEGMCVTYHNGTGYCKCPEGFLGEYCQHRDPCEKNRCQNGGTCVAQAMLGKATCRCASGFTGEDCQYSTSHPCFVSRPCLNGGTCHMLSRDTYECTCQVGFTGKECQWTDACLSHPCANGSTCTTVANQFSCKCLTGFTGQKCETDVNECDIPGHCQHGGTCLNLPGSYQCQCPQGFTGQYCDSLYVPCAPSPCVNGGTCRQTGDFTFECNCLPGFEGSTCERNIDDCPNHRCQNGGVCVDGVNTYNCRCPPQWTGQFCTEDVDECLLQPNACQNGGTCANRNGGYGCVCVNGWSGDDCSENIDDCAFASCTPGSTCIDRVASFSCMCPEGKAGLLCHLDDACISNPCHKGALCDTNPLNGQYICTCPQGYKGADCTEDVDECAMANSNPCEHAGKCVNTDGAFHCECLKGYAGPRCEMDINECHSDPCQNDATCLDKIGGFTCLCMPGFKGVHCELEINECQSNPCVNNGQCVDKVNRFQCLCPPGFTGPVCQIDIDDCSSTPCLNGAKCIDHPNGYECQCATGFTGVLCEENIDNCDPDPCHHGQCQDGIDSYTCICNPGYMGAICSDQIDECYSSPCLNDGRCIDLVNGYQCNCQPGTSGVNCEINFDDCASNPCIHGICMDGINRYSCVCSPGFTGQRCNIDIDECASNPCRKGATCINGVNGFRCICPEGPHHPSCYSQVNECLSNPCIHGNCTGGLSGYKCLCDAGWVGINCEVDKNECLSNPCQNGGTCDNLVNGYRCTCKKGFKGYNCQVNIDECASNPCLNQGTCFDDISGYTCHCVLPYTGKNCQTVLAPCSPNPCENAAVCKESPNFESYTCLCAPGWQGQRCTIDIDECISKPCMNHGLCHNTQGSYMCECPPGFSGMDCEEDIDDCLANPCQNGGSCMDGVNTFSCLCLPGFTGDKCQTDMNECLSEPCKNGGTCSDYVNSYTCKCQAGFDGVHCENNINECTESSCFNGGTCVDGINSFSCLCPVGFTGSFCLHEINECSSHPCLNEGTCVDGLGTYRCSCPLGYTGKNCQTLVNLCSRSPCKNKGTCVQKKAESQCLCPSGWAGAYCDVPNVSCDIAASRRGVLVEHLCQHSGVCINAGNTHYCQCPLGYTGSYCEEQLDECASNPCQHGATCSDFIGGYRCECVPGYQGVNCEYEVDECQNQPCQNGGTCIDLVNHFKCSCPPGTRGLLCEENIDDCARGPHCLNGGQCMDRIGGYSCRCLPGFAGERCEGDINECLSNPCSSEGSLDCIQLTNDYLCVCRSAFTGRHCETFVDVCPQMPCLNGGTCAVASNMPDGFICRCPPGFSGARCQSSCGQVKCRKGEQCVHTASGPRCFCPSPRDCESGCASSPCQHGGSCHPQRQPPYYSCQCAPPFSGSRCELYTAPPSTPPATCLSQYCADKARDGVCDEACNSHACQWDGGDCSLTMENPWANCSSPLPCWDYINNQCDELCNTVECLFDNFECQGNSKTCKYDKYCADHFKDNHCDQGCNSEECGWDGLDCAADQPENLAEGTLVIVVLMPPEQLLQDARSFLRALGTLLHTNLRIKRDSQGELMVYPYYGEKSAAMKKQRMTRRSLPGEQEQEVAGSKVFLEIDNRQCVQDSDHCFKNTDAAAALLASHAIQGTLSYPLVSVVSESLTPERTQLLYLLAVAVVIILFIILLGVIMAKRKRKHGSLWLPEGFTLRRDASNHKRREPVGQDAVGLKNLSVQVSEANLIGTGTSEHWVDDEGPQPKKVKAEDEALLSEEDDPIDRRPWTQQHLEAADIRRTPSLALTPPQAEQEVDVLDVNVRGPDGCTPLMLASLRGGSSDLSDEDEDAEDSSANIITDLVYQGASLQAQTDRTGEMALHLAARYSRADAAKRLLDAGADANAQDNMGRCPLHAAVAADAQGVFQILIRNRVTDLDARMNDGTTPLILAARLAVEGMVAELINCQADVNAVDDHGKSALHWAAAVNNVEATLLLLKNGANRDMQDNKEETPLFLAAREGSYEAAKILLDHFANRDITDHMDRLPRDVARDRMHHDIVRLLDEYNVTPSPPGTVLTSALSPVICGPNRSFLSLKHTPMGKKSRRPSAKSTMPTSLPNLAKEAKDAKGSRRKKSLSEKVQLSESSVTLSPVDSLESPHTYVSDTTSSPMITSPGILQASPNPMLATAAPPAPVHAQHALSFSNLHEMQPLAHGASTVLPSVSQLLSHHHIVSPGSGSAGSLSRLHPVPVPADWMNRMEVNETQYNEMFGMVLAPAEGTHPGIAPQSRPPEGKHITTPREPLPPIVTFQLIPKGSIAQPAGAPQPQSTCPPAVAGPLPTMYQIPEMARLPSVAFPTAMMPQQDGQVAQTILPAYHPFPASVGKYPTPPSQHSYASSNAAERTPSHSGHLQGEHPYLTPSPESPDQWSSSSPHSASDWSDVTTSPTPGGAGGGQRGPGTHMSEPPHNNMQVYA
# UniProt Q13464: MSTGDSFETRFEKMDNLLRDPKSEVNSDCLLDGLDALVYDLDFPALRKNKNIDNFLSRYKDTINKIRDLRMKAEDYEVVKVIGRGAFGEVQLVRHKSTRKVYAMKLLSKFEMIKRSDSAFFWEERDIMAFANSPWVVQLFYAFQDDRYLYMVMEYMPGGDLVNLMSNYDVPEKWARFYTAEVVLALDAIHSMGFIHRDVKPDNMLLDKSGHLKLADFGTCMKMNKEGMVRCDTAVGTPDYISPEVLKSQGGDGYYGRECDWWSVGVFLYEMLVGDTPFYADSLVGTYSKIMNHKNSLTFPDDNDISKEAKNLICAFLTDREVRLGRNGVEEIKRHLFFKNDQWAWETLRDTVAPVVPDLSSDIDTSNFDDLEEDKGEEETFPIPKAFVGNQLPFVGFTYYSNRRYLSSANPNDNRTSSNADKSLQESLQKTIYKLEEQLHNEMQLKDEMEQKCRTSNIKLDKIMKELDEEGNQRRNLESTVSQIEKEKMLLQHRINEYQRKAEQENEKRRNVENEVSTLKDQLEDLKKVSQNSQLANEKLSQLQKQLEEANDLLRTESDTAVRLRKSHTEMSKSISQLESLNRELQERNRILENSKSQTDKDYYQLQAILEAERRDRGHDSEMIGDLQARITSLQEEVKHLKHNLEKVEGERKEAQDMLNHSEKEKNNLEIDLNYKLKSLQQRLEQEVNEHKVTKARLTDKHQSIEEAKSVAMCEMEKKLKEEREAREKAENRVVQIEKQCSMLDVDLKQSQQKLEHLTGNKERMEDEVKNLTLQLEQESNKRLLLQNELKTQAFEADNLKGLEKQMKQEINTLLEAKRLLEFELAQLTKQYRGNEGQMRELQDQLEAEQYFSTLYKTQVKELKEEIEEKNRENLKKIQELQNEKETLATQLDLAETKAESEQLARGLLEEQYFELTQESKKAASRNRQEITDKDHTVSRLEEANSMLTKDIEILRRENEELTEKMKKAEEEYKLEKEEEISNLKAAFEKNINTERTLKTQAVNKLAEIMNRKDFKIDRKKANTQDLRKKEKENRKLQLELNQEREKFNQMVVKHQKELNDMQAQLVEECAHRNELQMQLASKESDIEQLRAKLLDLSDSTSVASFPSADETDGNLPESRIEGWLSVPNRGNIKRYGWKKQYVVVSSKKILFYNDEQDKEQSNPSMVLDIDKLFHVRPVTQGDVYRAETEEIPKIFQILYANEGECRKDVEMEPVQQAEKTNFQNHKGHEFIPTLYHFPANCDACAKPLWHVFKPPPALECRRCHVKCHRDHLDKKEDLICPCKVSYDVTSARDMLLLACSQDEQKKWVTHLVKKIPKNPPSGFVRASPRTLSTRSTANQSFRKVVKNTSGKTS
# ± gives the standard deviation of the averaged measurements. Some of the results follow.
# Compound: Nc1nc2c(ncn2[C@@H]2O[C@H](COP(=O)(O)OP(=O)(O)OP(=O)(O)O)[C@@H](O)[C@H]2O)c(=O)[nH]1 [guanosine triphosphate]
# Assay: NP40-soluble protein abundance relative to vehicle (solubility fold change) (ratio); higher = more soluble protein in presence of GTP
# Outline: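 Data come from three independent experiments in which Dounce-homogenised Jurkat crude lysate was treated at eight concentrations from 0.1 to 10 mM. Treatment ran 10 min at room temperature and then 3 min at 37 °C, after which 0.8% NP40 and benzonase were added for 60 min at 4 °C before ultracentrifugation. The supernatant underwent TMT labelling and LC-MS/MS, and vsn-normalised intensities were expressed as fold change against the detergent-processed vehicle in each replicate.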
Target,NP40-soluble protein abundance (concentration: 0.1mM),NP40-soluble protein abundance (concentration: 0.5mM),NP40-soluble protein abundance (concentration: 1mM),NP40-soluble protein abundance (concentration: 2mM),NP40-soluble protein abundance (concentration: 4mM),NP40-soluble protein abundance (concentration: 6mM),NP40-soluble protein abundance (concentration: 8mM),NP40-soluble protein abundance (concentration: 10mM)
UniProt Q14318-2|Q14318,0.974 ± 0.053,0.989 ± 0.067,1 ± 0.078,0.974 ± 0.095,0.984 ± 0.086,0.994 ± 0.077,1.02 ± 0.059,1.03 ± 0.086
UniProt Q07021 and related entries,0.809 ± 0.2,0.659 ± 0.19,0.779 ± 0.35,0.926 ± 0.23,0.745 ± 0.31,0.976 ± 0.19,0.862 ± 0.36,0.819 ± 0.043
UniProt Q13595 and related entries,1.03 ± 0.051,1.22 ± 0.049,1.25 ± 0.17,1.32 ± 0.13,1.26 ± 0.24,1.22 ± 0.26,1.26 ± 0.26,1.26 ± 0.3
RNASEL (UniProt Q05823),1.08 ± 0.03,1.1 ± 0.043,1.12 ± 0.041,1.07 ± 0.05,1.04 ± 0.022,1.05 ± 0.027,1.1 ± 0.029,1.03 ± 0.056
YWHAH (UniProt Q04917),0.812 ± 0.096,0.764 ± 0.081,0.962 ± 0.084,0.917 ± 0.048,0.899 ± 0.058,0.934 ± 0.075,0.862 ± 0.12,0.955 ± 0.062
LGALS3BP (UniProt Q08380),0.957 ± 0.039,0.989 ± 0.11,1.05 ± 0.11,1.11 ± 0.14,1.13 ± 0.11,1.13 ± 0.18,1.1 ± 0.13,1.16 ± 0.21
UniProt Q13564 and related entries,1.02 ± 0.016,1.016 ± 0.0095,1.01 ± 0.028,0.98 ± 0.041,0.962 ± 0.043,0.939 ± 0.055,0.978 ± 0.031,0.936 ± 0.037
UniProt Q14156 and related entries,1.13 ± 0.049,1.105 ± 0.011,1.09 ± 0.11,1.1 ± 0.021,1.21 ± 0.11,1.1 ± 0.16,1.0338 ± 0.00078,1.01 ± 0.013
CIRBP (UniProt Q14011),0.921 ± 0.12,0.934 ± 0.11,0.962 ± 0.13,0.928 ± 0.13,0.966 ± 0.087,1.03 ± 0.12,1.04 ± 0.12,1.07 ± 0.12
BLMH (UniProt Q13867),1.1 ± 0.061,1.05 ± 0.077,0.966 ± 0.051,1.03 ± 0.11,0.979 ± 0.089,0.971 ± 0.087,0.902 ± 0.022,0.921 ± 0.05
BYSL (UniProt Q13895),0.924 ± 0.03,0.952 ± 0.051,0.949 ± 0.033,0.987 ± 0.084,0.987 ± 0.1,0.916 ± 0.12,0.856 ± 0.048,0.885 ± 0.07
NOTCH2 (UniProt Q04721),0.991 ± 0.023,1.03 ± 0.042,1.086 ± 0.0064,1.12 ± 0.069,0.967 ± 0.22,1.08 ± 0.23,1.08 ± 0.028,1.06 ± 0.08
SNW1 (UniProt Q13573),0.96 ± 0.049,0.94 ± 0.064,0.97 ± 0.028,0.94 ± 0.071,0.942 ± 0.063,0.959 ± 0.041,1.01 ± 0.046,1.03 ± 0.051
ROCK1 (UniProt Q13464),0.974 ± 0.059,0.995 ± 0.057,0.98 ± 0.064,0.938 ± 0.084,0.934 ± 0.067,0.942 ± 0.058,0.972 ± 0.056,0.941 ± 0.067
UniProt Q13596 and related entries,0.953 ± 0.093,0.951 ± 0.086,0.928 ± 0.1,0.894 ± 0.087,0.898 ± 0.087,0.877 ± 0.067,0.888 ± 0.093,0.866 ± 0.077

# Part of the list above, with tabs.
Target	NP40-soluble protein abundance (concentration: 0.1mM)	NP40-soluble protein abundance (concentration: 0.5mM)	NP40-soluble protein abundance (concentration: 1mM)	NP40-soluble protein abundance (concentration: 2mM)	NP40-soluble protein abundance (concentration: 4mM)	NP40-soluble protein abundance (concentration: 6mM)	NP40-soluble protein abundance (concentration: 8mM)	NP40-soluble protein abundance (concentration: 10mM)
UniProt Q14156 and related entries	1.13 ± 0.049	1.105 ± 0.011	1.09 ± 0.11	1.1 ± 0.021	1.21 ± 0.11	1.1 ± 0.16	1.0338 ± 0.00078	1.01 ± 0.013
CIRBP (UniProt Q14011)	0.921 ± 0.12	0.934 ± 0.11	0.962 ± 0.13	0.928 ± 0.13	0.966 ± 0.087	1.03 ± 0.12	1.04 ± 0.12	1.07 ± 0.12
